PubChem BioAssay AID1224828, NIAID | 2016
Shown is one part, drawn at random, of about 17,000 deposited reagents. Of all reagents, 762 (4.5%) got an active call. 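Active calls include both raised and lowered p65 entry, mostly lowered; wells with fewer than 50 cells lack a z-score.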 Raw values vary from plate to plate and are shown uncorrected. Entries without a mark were called inactive.

Test: 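Regulators linking TLR4 signalling to p65 nuclear translocation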 (primary screen)
Cells: mouse RAW264.7 G9 macrophage reporter cells (GFP-p65, Tnf promoter-mCherry)
Reagents: siRNA pool against mouse genes, 100 nM
Timing: 2 days siRNA transfection, then 40 min LPS before fixation
Treatment: LPS (Salmonella minnesota R595) at 10 ng/ml
Read-out: 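Imaged p65 nuclear translocation ratio, normalised to the plate median, converted to robust z-scores and averaged across two replicates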
Scale: p65 translocation robust z-score: higher = more nuclear NF-kappaB p65 after LPS than the plate median; nuclear/cytoplasmic p65 ratio: higher = more nuclear NF-kappaB p65
Rule for the call: 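Active if robust z is above 3.3 (negative regulators) or below -1.56, the Tlr4 control median (positive regulators); activity score 50 or more; control wells not called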
Meaning of the calls: active = hit (p65 shift raised or lowered); inactive = no clear change

{"target gene": "Ankrd23 (ankyrin repeat domain 23)", "p65 translocation robust z-score": 0.33, "nuclear/cytoplasmic p65 ratio, rep 1": 1.63, "nuclear/cytoplasmic p65 ratio, rep 2": 1.76, "low cell count flag": "enough cells to score"}
{"target gene": "Ccdc71l (coiled-coil domain containing 71 like)", "nuclear/cytoplasmic p65 ratio, rep 1": 1.3, "nuclear/cytoplasmic p65 ratio, rep 2": 1.52, "low cell count flag": "fewer than 50 cells per well; well left out of scoring"}
{"target gene": "Sqor (sulfide quinone oxidoreductase)", "p65 translocation robust z-score": 1.22, "nuclear/cytoplasmic p65 ratio, rep 1": 1.54, "nuclear/cytoplasmic p65 ratio, rep 2": 1.4, "low cell count flag": "enough cells to score"}
{"target gene": "Nxph4 (neurexophilin 4)", "p65 translocation robust z-score": -0.73, "nuclear/cytoplasmic p65 ratio, rep 1": 1.61, "nuclear/cytoplasmic p65 ratio, rep 2": 1.58, "low cell count flag": "enough cells to score"}
{"target gene": "Esrp2 (epithelial splicing regulatory protein 2)", "nuclear/cytoplasmic p65 ratio, rep 1": 1.5, "nuclear/cytoplasmic p65 ratio, rep 2": 1.38, "low cell count flag": "fewer than 50 cells per well; well left out of scoring"}
{"target gene": "Nudt16 (nudix hydrolase 16)", "nuclear/cytoplasmic p65 ratio, rep 1": 1.38, "nuclear/cytoplasmic p65 ratio, rep 2": 1.41, "low cell count flag": "fewer than 50 cells per well; well left out of scoring"}
{"target gene": "Lpar6 (lysophosphatidic acid receptor 6)", "nuclear/cytoplasmic p65 ratio, rep 1": 1.63, "nuclear/cytoplasmic p65 ratio, rep 2": 1.44, "low cell count flag": "fewer than 50 cells per well; well left out of scoring"}
{"target gene": "Ptafr (platelet-activating factor receptor)", "p65 translocation robust z-score": -0.08, "nuclear/cytoplasmic p65 ratio, rep 1": 1.43, "nuclear/cytoplasmic p65 ratio, rep 2": 1.65, "low cell count flag": "enough cells to score"}
{"target gene": "Tmem35a (transmembrane protein 35A)", "p65 translocation robust z-score": 0.32, "nuclear/cytoplasmic p65 ratio, rep 1": 1.46, "nuclear/cytoplasmic p65 ratio, rep 2": 1.61, "low cell count flag": "enough cells to score"}
{"target gene": "Isy1 (spliceosome associated protein)", "nuclear/cytoplasmic p65 ratio, rep 1": 1.44, "nuclear/cytoplasmic p65 ratio, rep 2": 1.05, "low cell count flag": "fewer than 50 cells per well; well left out of scoring"}
{"target gene": "Slc7a15", "nuclear/cytoplasmic p65 ratio, rep 1": 1.14, "nuclear/cytoplasmic p65 ratio, rep 2": 1.45, "low cell count flag": "fewer than 50 cells per well; well left out of scoring"}
{"target gene": "Lypd4 (Ly6/Plaur domain containing 4)", "p65 translocation robust z-score": "-1.76 (active)", "nuclear/cytoplasmic p65 ratio, rep 1": 1.1, "nuclear/cytoplasmic p65 ratio, rep 2": 1.05, "low cell count flag": "enough cells to score"}

2 entries from above, limited to “low cell count flag”:
Esrp2 (epithelial splicing regulatory protein 2) = fewer than 50 cells per well; well left out of scoring
Nudt16 (nudix hydrolase 16) = fewer than 50 cells per well; well left out of scoring
